The other results are listed elsewhere or left out. Shown are side measurements of this screen, not its main read-out; they come without a call. The list favours compounds with an active or inconclusive main result. Potencies come from curve fits of mixed quality, noted in brackets.
Assay: qHTS Assay for Modulators of Lamin A Splicing
Conditions: HeLa LMNA splicing GFP/RFP minigene ratio, 48 h
In short: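 S3 HeLa stable clones carrying a lamin A-EGFP splicing minigene plus DsRed2 were seeded at 600 cells/well in Opti-MEM with 2% FBS, pin-dosed and incubated 48 h at 37°C. Acumen cytometry (488 nm) gave the GFP/RFP total-intensity ratio.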

[1] = measured here: RFP viability control channel
[2] = measured here: GFP splicing reporter channel

SMILES	AC50 [1]	AC50 [2]
C/C(=C\C(=O)c1ccncc1)Nc1ccccc1O	10 µM [rising, partial curve]	
COc1ccccc1-c1ccc2ncnc(NCc3ccccc3)c2c1	15.8 µM [falling, partial curve]	12.6 µM [falling, partial curve]
Cc1ccc(-c2csc3ncnc(-n4nc(C)cc4N)c23)cc1	7.08 µM [rising, partial curve]	
COc1ccc(C2CC(c3ccccc3)=NN2C(=O)COC(=O)c2ccc(Cl)nc2)cc1 (centres undefined)	35.5 µM [rising, single point]	
O=C(O)CN1C(=O)/C(=C/C=C/c2ccccc2)SC1=S		0.0562 µM [rising, full curve, poor fit]
CCCc1cc(=O)n2[nH]c(NCc3ccc(OC)c(OC)c3)nc2n1	2 µM [falling, partial curve, poor fit]	0.02 µM [falling, full curve, poor fit]
Cn1c(=O)c2c(nc(NCc3ccco3)n2C/C=C/c2ccccc2)n(C)c1=O	5.62 µM [rising, single point]	
CC(NC(=O)c1ccnc(C(C)(C)C)c1)c1ccccc1 (centres undefined)	31.6 µM [rising, single point]	
CCC(O)CNc1nc(-n2nc(C)cc2C)nc2sc3c(c12)CC(C)(C)OC3 (centres undefined)	22.4 µM [falling, partial curve, poor fit]	
COCCCNC(=O)c1cc(C(=O)Cc2ccccc2)c[nH]1		0.141 µM [rising, full curve, poor fit]
CCOC(=O)c1nnn(-c2nonc2N)c1COc1c(C=O)cccc1OC		3.16 µM [rising, single point]
Cc1ccc(CNC(=O)c2ccc(CSCc3ccccc3Cl)o2)cc1		0.02 µM [falling, full curve, poor fit]
CCSc1nc(-c2ccc(OC)cc2)n(-c2nc3ccccc3s2)n1	35.5 µM [rising, single point]	35.5 µM [rising, single point]
COc1cccc(C(=O)N2CCN(Cc3ccccc3C(F)(F)F)CC2)c1	3.98 µM [rising, full curve]	12.6 µM [rising, partial curve]
CCC1=NN(C(=O)C(=O)Nc2ccc(OC)cc2)C(O)(C(F)(F)F)C1 (centres undefined)	25.1 µM [falling, single point]	25.1 µM [falling, single point]
CCOC(=O)Cn1c(=O)cc(C)c2ccccc21		35.5 µM [falling, single point]
CCOC(=O)c1c(C(=O)OCC)c(C)n(CCc2ccc(OC)c(OC)c2)c1C	10 µM [rising, partial curve]	11.2 µM [rising, partial curve, poor fit]
CCOc1ccc2nc(Nc3nc4ccc(NC(C)=O)cc4s3)sc2c1		1.12 µM [rising, full curve, poor fit]

SMILES	AC50 [1]	AC50 [2]
N#Cc1cncc(-c2ccc3c(c2)OCCOCCOCCOCCOCCO3)n1		0.316 µM [falling, full curve, poor fit]
CC(C)CNc1nc(SCC(=O)Nc2ccccc2)nc(N2CCOCC2)n1	15.8 µM [falling, partial curve, poor fit]	20 µM [falling, partial curve, poor fit]
COc1cc(C2CC(=O)Nc3cc(C)c(C)cc32)cc(OC)c1OC (centres undefined)	35.5 µM [rising, single point]	
CCOc1cc(OCC)cc(C(=O)NCCCN2CCOCC2)c1		0.794 µM [rising, single point]
COc1ccc(-c2nn3c(-c4ccco4)nnc3s2)cc1OC		15.8 µM [falling, single point]
COc1ccc(Cn2nnnc2CN(Cc2cc3ccc(C)cc3[nH]c2=O)C2CCCC2)cc1	17.8 µM [rising, single point]	35.5 µM [rising, partial curve, poor fit]
CCc1cc(-c2n[nH]c(=S)n2CC)cs1		14.1 µM [falling, single point]
COc1ccccc1OC(=O)Oc1ccccc1OC	2.82 µM [rising, single point]	0.000891 µM [falling, full curve, poor fit]
CCOc1cc(C2C3=C(CCCC3=O)N(CCC(=O)O)C3=C2C(=O)CCC3)ccc1OS(=O)(=O)c1ccc(C)cc1	15.8 µM [falling, partial curve, poor fit]	
COc1cccc(Cn2c(=O)cnc3cncnc32)c1	5.62 µM [falling, full curve]	5.62 µM [falling, full curve]
Cc1nc(N2CCN(c3ccccn3)CC2)c2c(C)c(C(=O)Nc3ccccc3F)sc2n1	1.26 µM [rising, full curve, poor fit]	
COc1cccc(CC2(CO)CCN(C(=O)NCCc3ccccc3)CC2)c1	0.2 µM [falling, full curve, poor fit]	
COc1ccc(C(C)(C)C)cc1NC(=O)Nc1ccc2c(c1)OCO2	35.5 µM [falling, single point]	25.1 µM [falling, partial curve]
COc1ccc(NS(=O)(=O)c2cccc(NC(=O)c3ccc(S(=O)(=O)N4CCCCCC4)cc3)c2)cc1	1.12 µM [rising, full curve]	0.562 µM [rising, full curve]
O=c1ccnc(SCn2nnc3ccccc3c2=O)[nH]1	5.01 µM [falling, partial curve]	12.6 µM [falling, partial curve]
CCC(=O)NCCC1CCc2ccc3c(c21)CCO3 (centres undefined)		35.5 µM [falling, single point]
O=C(/C=C/c1ccccc1)NC(NC(=S)Nc1ccc(Cl)cc1Cl)C(Cl)(Cl)Cl (centres undefined)	22.4 µM [rising, single point]	
CC(=O)N1N=C(c2ccc(NS(C)(=O)=O)cc2)CC1c1ccc2nccnc2c1 (centres undefined)		0.178 µM [rising, full curve, poor fit]

From PubChem BioAssay AID1487 (National Center for Advancing Translational Sciences (NCATS), 2009)
